Results are given in words; binding and its absence hold for the method and conditions named. Some results given as binding are weak or reduced against the parent protein; the word gives no strength.
Biological target: ERK3 (UniProt Q16659)
Test: trans-SUMOylation, coexpression with EGFP-SUMO1 in HEK293 cells, western blot

Amino acid sequences for entries named in this document (tags omitted).
UniProt Q16659: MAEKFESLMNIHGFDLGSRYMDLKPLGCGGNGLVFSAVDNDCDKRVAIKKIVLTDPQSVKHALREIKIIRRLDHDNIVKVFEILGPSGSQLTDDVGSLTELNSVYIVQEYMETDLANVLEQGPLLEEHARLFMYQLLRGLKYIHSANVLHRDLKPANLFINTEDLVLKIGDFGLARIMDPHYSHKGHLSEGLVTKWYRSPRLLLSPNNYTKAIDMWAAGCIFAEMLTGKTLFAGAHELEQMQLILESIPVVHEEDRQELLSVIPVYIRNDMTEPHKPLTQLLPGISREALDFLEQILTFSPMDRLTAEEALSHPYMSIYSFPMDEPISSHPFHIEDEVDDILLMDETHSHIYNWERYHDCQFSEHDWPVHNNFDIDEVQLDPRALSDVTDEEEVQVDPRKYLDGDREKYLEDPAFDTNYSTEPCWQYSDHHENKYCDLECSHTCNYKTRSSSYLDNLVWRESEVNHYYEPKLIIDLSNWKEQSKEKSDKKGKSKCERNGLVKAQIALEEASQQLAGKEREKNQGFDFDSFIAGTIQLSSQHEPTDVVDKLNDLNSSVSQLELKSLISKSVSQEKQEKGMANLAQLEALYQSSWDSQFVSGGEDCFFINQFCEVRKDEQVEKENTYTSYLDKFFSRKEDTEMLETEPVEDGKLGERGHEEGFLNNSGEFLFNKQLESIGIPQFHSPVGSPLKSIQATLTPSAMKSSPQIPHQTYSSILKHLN
UniProt Q8IW41: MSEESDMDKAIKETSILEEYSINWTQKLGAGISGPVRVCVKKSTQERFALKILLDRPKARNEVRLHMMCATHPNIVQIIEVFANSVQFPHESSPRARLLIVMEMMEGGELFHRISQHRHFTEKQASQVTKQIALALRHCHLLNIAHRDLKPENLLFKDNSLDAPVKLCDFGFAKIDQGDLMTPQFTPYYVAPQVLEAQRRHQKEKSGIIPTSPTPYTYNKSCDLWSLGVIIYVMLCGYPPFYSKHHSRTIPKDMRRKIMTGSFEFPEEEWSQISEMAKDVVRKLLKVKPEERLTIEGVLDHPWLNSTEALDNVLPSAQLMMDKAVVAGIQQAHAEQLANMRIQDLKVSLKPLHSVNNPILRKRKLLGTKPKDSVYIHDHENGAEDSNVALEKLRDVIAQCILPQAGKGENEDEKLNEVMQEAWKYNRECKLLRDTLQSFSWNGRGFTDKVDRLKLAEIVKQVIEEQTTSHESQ

With “MK5 (from UniProt Q8IW41 1-473) (enzyme)” the binding was “binds”.
